Values joined by “and” are separate entries in the source; they are usually repeats but may differ in a detail not shown here. Equal entries are not always repeated. This continues a long series; more values of the same kind are listed elsewhere.
Experiments:
[1] = Mass balance: radioactive dose recovered in urine and feces; type: in vivo, human
Procedure, shortened: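 8 healthy men each got one [14C]-labelled 20 mg oral capsule (about 100 μCi) with 240 mL water after a fast of at least 10 h. Urine was collected at 0–4, 4–8, 8–12 and 12–24 h, then every 24 h; feces every 24 h, homogenised in about 20:80 acetonitrile:water. Urine was counted directly by LSC; fecal homogenate was combusted first. Samples ran in duplicate. Collection continued until discharge criteria were met.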

[2] = Urinary excretion of aficamten, M1a and M1b; type: in vivo, human; conditions: geometric mean; aficamten as unchanged drug over 456 h post‐dose
Procedure, shortened: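 Urine was collected predose, at 0–4, 4–8, 8–12 and 12–24 h, then every 24 h until discharge. Isopropyl alcohol equal to 20% of void mass was added, pools were kept at 4°C, and aliquots were frozen at −20°C. Urinary excretion of parent and M1a/M1b (fe0-tlast) and renal clearance came from non-compartmental analysis, given as geometric means.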

SMILES: CCc1nc(-c2ccc3c(c2)CC[C@H]3NC(=O)c2cnn(C)c2)no1 [Aficamten]
- Cumulative percent of radioactive dose recovered ([1]; feces, 0–24 h, individual subject): 0.00% (2×) and 0.0529% and 2.14% and 0.0658% and 0.0363% and 45.5% and 0.0642%
- Cumulative percent of radioactive dose recovered ([1]; feces, 0–24 h, mean): 5.98%
- Cumulative percent of radioactive dose recovered ([1]; feces, 0–48 h, individual subject): 6.81% and 3.69% and 1.09% and 3.45% and 0.0658% and 13.0% and 47.4% and 31.2%
- Cumulative percent of radioactive dose recovered ([1]; feces, 0–48 h, mean): 13.3%
- Cumulative percent of radioactive dose recovered ([1]; feces, 0–72 h, individual subject): 14.2% and 32.5% and 16.3% and 30.6% and 50.5% and 24.9% and 51.4% and 42.0%
- Cumulative percent of radioactive dose recovered ([1]; feces, 0–72 h, mean): 32.8%
- Cumulative percent of radioactive dose recovered ([1]; feces, 0–96 h, individual subject): 22.4% and 32.5% and 18.9% and 45.9% and 54.2% and 39.9% and 54.1% and 46.6%
- Cumulative percent of radioactive dose recovered ([1]; feces, 0–96 h, mean): 39.3%
- Cumulative percent of radioactive dose recovered ([1]; feces, 0–120 h, individual subject): 22.4% and 38.5% and 24.3% and 49.4% and 54.2% and 47.1% and 55.9% and 49.9%
- Cumulative percent of radioactive dose recovered ([1]; feces, 0–120 h, mean): 42.7%
- Cumulative percent of radioactive dose recovered ([1]; feces, 0–144 h, individual subject): 33.8% and 38.5% and 26.9% and 52.6% and 59.1% and 50.9% and 55.9% and 52.2%
- Cumulative percent of radioactive dose recovered ([1]; feces, 0–144 h, mean): 46.2%
- Cumulative percent of radioactive dose recovered ([1]; feces, 0–168 h, individual subject): 33.8% and 38.5% and 33.6% and 55.5% and 61.6% and 53.1% and 59.4% and 54.3%
- Cumulative percent of radioactive dose recovered ([1]; feces, 0–168 h, mean): 48.7%
- Cumulative percent of radioactive dose recovered ([1]; feces, 0–192 h, individual subject): 36.5% and 42.7% and 33.6% and 57.9% and 61.6% and 55.2% and 60.3% and 56.4%
- Cumulative percent of radioactive dose recovered ([1]; feces, 0–192 h, mean): 50.5%
- Cumulative percent of radioactive dose recovered ([1]; feces, 0–216 h, individual subject): 37.5% and 44.8% and 33.6% and 59.3% and 63.0% and 56.5% and 61.0% and 57.4%
- Cumulative percent of radioactive dose recovered ([1]; feces, 0–216 h, mean): 51.6%
- Cumulative percent of radioactive dose recovered ([1]; feces, 0–240 h, individual subject): 38.2% and 46.5% and 34.1% and 59.3% and 63.7% and 56.5% and 61.7% and 58.9%
- Cumulative percent of radioactive dose recovered ([1]; feces, 0–240 h, mean): 52.4%
- Cumulative percent of radioactive dose recovered ([1]; feces, 0–264 h, individual subject): 39.2% and 48.3% and 34.1% and 59.5% and 65.1% and 58.9% and 62.4% and 60.2%
- Cumulative percent of radioactive dose recovered ([1]; feces, 0–264 h, mean): 53.5%
- Cumulative percent of radioactive dose recovered ([1]; feces, 0–288 h, individual subject): 40.0% and 48.3% and 35.1% and 60.8% and 65.1% and 58.9% and 62.8% and 60.7%
- Cumulative percent of radioactive dose recovered ([1]; feces, 0–288 h, mean): 54.0%
- Cumulative percent of radioactive dose recovered ([1]; feces, 0–312 h, individual subject): 41.3% and 49.8% and 36.2% and 61.6% and 65.9% and 59.2% and 63.2% and 61.5%
- Cumulative percent of radioactive dose recovered ([1]; feces, 0–312 h, mean): 54.8%
- Cumulative percent of radioactive dose recovered ([1]; feces, 0–336 h, individual subject): 42.8% and 50.6% and 37.2% and 62.2% and 66.4% and 59.2% and 63.5% and 62.0%
- Cumulative percent of radioactive dose recovered ([1]; feces, 0–336 h, mean): 55.5%
- Cumulative percent of radioactive dose recovered ([1]; feces, 0–360 h, individual subject): 42.8% and 51.4% and 37.9% and 62.7% (2×) and 66.4% and 60.0% and 63.8%
- Cumulative percent of radioactive dose recovered ([1]; feces, 0–360 h, mean): 56.0%
- Cumulative percent of radioactive dose recovered ([1]; feces, 0–384 h, individual subject): 42.8% and 52.3% and 38.5% and 63.1% (2×) and 66.4% and 60.4% and 63.8%
- Cumulative percent of radioactive dose recovered ([1]; feces, 0–384 h, mean): 56.3%
- Cumulative percent of radioactive dose recovered ([1]; feces, 0–408 h, individual subject): 42.8% and 52.6% and 38.9% and 63.1% (2×) and 66.5% and 60.4% and 63.8%
- Cumulative percent of radioactive dose recovered ([1]; feces, 0–408 h, mean): 56.4%
- Cumulative percent of radioactive dose recovered ([1]; feces, 0–432 h, individual subject): 44.0% and 53.0% and 39.4% and 63.4% and 66.7% and 60.4% and 64.1% and 63.6%
- Cumulative percent of radioactive dose recovered ([1]; feces, 0–432 h, mean): 56.8%
- Cumulative percent of radioactive dose recovered ([1]; feces, 0–456 h, individual subject): 44.3% and 53.0% and 39.9% and 63.6% and 66.9% and 60.9% and 64.2% and 63.8%
- Cumulative percent of radioactive dose recovered ([1]; feces, 0–456 h, mean): 57.1%
- Cumulative percent of radioactive dose recovered ([1]; feces, 0–480 h, individual subject): 45.3% and 53.9% and 40.3% and 63.6%
- Cumulative percent of radioactive dose recovered ([1]; feces, 0–480 h, mean): 57.4%
- Cumulative percent of radioactive dose recovered ([1]; feces, 0–504 h, individual subject): 45.3% and 53.9% and 40.9% and 63.7%
- Cumulative percent of radioactive dose recovered ([1]; feces, 0–504 h, mean): 57.5%
- Cumulative percent of radioactive dose recovered ([1]; feces, 0–528 h, individual subject): 45.5% and 54.3% and 40.9% and 63.8%
- Cumulative percent of radioactive dose recovered ([1]; feces, 0–528 h, mean): 57.6%
- Cumulative percent of radioactive dose recovered ([1]; feces, 0–552 h, individual subject): 45.7% and 54.3% and 41.0% and 63.9%
- Cumulative percent of radioactive dose recovered ([1]; feces, 0–552 h, mean): 57.6%
- Cumulative percent of radioactive dose recovered ([1]; feces, 0–576 h, individual subject): 45.7% and 54.3% and 41.2% and 64.0%
- Cumulative percent of radioactive dose recovered ([1]; feces, 0–576 h, mean): 57.6%
- Cumulative percent of radioactive dose recovered ([1]; feces, 0–600 h, individual subject): 54.5% and 41.3% and 64.1%
- Cumulative percent of radioactive dose recovered ([1]; feces, 0–600 h, mean): 57.7%
- Cumulative percent of radioactive dose recovered ([1]; urine, 0–4 h, individual subject): 0.652% and 0.103% and 0.417% and 0.577% and 0.394% and 0.619% and 0.384% and 0.369%
- Cumulative percent of radioactive dose recovered ([1]; urine, 0–4 h, mean): 0.439%
- Cumulative percent of radioactive dose recovered ([1]; urine, 0–8 h, individual subject): 1.87% and 0.604% and 1.46% and 1.59% and 0.612% and 1.81% and 1.29% and 1.02%
- Cumulative percent of radioactive dose recovered ([1]; urine, 0–8 h, mean): 1.28%
- Cumulative percent of radioactive dose recovered ([1]; urine, 0–12 h, individual subject): 3.19% and 0.604% and 2.63% and 2.45% and 0.612% and 2.89% and 1.97% and 1.83%
- Cumulative percent of radioactive dose recovered ([1]; urine, 0–12 h, mean): 2.02%
- Cumulative percent of radioactive dose recovered ([1]; urine, 0–24 h, individual subject): 6.66% and 2.20% and 4.65% and 4.20% and 2.00% and 5.88% and 4.89% and 3.95%
- Cumulative percent of radioactive dose recovered ([1]; urine, 0–24 h, mean): 4.30%
- Cumulative percent of radioactive dose recovered ([1]; urine, 0–48 h, individual subject): 13.4% and 5.36% and 7.73% and 7.03% and 5.78% and 10.7% and 10.4% and 8.07%
- Cumulative percent of radioactive dose recovered ([1]; urine, 0–48 h, mean): 8.55%
- Cumulative percent of radioactive dose recovered ([1]; urine, 0–72 h, individual subject): 19.1% and 7.92% and 12.1% and 10.1% and 9.03% and 14.5% (2×) and 11.3%
- Cumulative percent of radioactive dose recovered ([1]; urine, 0–72 h, mean): 12.3%
- Cumulative percent of radioactive dose recovered ([1]; urine, 0–336 h, individual subject): 30.5% and 32.3% and 28.4%
- Cumulative percent of radioactive dose recovered ([1]; urine, 0–360 h, individual subject): 46.5% and 22.8% and 31.9% and 23.6% and 23.0% and 31.0% and 32.7% and 28.7%
- Cumulative percent of radioactive dose recovered ([1]; urine, 0–360 h, mean): 30.0%
- Cumulative percent of radioactive dose recovered ([1]; urine, 0–384 h, individual subject): 47.1% and 23.3% and 32.6% and 24.0% and 23.2% and 31.5% and 33.1% and 29.1%
- Cumulative percent of radioactive dose recovered ([1]; urine, 0–384 h, mean): 30.5%
- Cumulative percent of radioactive dose recovered ([1]; urine, 0–408 h, individual subject): 47.5% and 23.9% and 33.0% and 24.2% and 23.5% and 31.8% and 33.4% and 29.4%
- Cumulative percent of radioactive dose recovered ([1]; urine, 0–408 h, mean): 30.8%
- Cumulative percent of radioactive dose recovered ([1]; urine, 0–432 h, individual subject): 47.9% and 24.5% and 33.4% and 24.4% and 23.7% and 32.1% and 33.7% and 29.7%
- Cumulative percent of radioactive dose recovered ([1]; urine, 0–432 h, mean): 31.2%
- Cumulative percent of radioactive dose recovered ([1]; urine, 0–456 h, individual subject): 48.3% and 24.7% and 33.7% and 24.6% and 23.9% and 32.3% and 33.9% and 29.9%
- Cumulative percent of radioactive dose recovered ([1]; urine, 0–456 h, mean): 31.4%
- Cumulative percent of radioactive dose recovered ([1]; urine, 0–480 h, individual subject): 48.5% and 25.1% and 34.1% and 24.8%
- Cumulative percent of radioactive dose recovered ([1]; urine, 0–480 h, mean): 31.6%
- Cumulative percent of radioactive dose recovered ([1]; urine, 0–504 h, individual subject): 48.7% and 25.4% and 34.4% and 24.9%
- Cumulative percent of radioactive dose recovered ([1]; urine, 0–504 h, mean): 31.7%
- Cumulative percent of radioactive dose recovered ([1]; urine, 0–528 h, individual subject): 48.9% and 25.6% and 34.6% and 25.0%
- Cumulative percent of radioactive dose recovered ([1]; urine, 0–528 h, mean): 31.8%
- Cumulative percent of radioactive dose recovered ([1]; urine, 0–552 h, individual subject): 49.1% and 25.8% and 34.8% and 25.1%
- Cumulative percent of radioactive dose recovered ([1]; urine, 0–552 h, mean): 31.8%
- Cumulative percent of radioactive dose recovered ([1]; urine, 0–576 h, individual subject): 49.2% and 26.0% and 35.0% and 25.2%
- Cumulative percent of radioactive dose recovered ([1]; urine, 0–576 h, mean): 31.9%
- Cumulative percent of radioactive dose recovered ([1]; urine, 0–600 h, individual subject): 26.3% and 35.1% and 25.3%
- Cumulative percent of radioactive dose recovered ([1]; urine, 0–600 h, mean): 32.0%
- percentage of the dose administered recovered in the urine (fe0‐tlast) [2]: 0.554%
